Results are given in words; binding and its absence hold for the method and conditions named. Some entries that bind do so weakly or less than the wild type.
Experiments:
[1] = biological target: T1, hCCR9 peptide I10A-P11A (human); experiment: 2 x Ala-scan with substituted hCCR9 peptides (Fig. 9A)
T1 sequence (peptide): TDFTSPAANMADDYGSEST

[2] = biological target: T2, human CCR9 (C-C chemokine receptor type 9) (human) (UniProt P51686); experiment: screen of murine hybridoma antibodies for affinity to CCR9 (ELISA, then flow cytometry); format not detailed
T2 sequence: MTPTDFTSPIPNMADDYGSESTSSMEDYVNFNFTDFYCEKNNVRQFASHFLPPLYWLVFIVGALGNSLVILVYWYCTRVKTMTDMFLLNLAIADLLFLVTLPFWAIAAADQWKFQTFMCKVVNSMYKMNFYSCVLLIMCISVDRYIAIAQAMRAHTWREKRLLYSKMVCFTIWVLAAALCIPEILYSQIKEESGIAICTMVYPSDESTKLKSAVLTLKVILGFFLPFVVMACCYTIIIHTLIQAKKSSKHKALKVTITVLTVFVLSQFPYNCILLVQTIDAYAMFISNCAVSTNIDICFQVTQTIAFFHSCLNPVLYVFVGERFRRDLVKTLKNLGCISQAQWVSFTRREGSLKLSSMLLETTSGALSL

[3] = biological target: T1, hCCR9 peptide I10A-P11A (human); experiment: 2 x Ala-scan with substituted hCCR9 peptides (Fig. 9B)
[4] = biological target: T3, hCCR9 peptide Y17A-G18A (human); experiment: as above
T3 sequence (peptide): TDFTSPIPNMADDAASEST

N-terminal 6 (…) (human) = biological target: T4, N-terminal 6 (…) (human); experiment: peptide inhibition: 1 µg/mL antibody pre-incubated with 100 µg/mL peptide, then binding to MOLT-4 cells by flow cytometry
T4 sequence (peptide): SPIPNMADDYG

[5] = biological target: T5, CCR9 N-terminal peptide 1 (TPTDFTSPIPNMADDYGSESTSS) (human, biotinylated in the ELISA of Example 2 (site not stated)); experiment: as above
T5 construct: Biotin is stated for the ELISA; also called N-terminal 1; biotinylated peptide from the N-terminal region of huCCR9
T5 peptide: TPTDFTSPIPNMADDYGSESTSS

[6] = biological target: T2, human CCR9 (C-C chemokine receptor type 9) (human); experiment: flow cytometry on MOLT-4 cells, pHrodo-labeled antibodies
[7] = biological target: T2, human CCR9 (C-C chemokine receptor type 9) (human); experiment: flow cytometry on MOLT-4 cells, pHrodo-labeled antibody batches

B1: C9Mab-16 (antibody, V domains shown)
VH: EVKLEESGGGLVLPGGSMKLSCVASGFTFSDYWMNWVRQSPEKGLEWVAEIRSKSKNYATHYEESVRGRCTISRDDSKSSVYLQMNNLRAEDTGIYFCMFFYSPYWGQGTLVTVSA
VL: DVVMTQTPLSLPVSLGDQASISCRSSQSLVHSNGITFLHWYLQKPGQSPKLLIYKVSNRFSGVPDRFSGSGSGTDFTLKISRVEAEDLGVYFCSQTTHVPWTFGGGTKLEIKR
notes: Murine parental antibody from hybridoma; also called C9M16; clone 16
binding [1]: binds | binding [2]: binds

B2: C9Mab-19 (antibody, V domains shown)
VH: EVKLEESGGGLVQPGGSMKLSCVASGFTFSNYWMDWVRQSPEKGLEWVAEIRSKSNNYATHYAESMKGRFTISRDDSKSSVYLQMINLRTEDTGIYYCAFYYSPYWGQGTLVTVSA
VL: DVVMTQTPLSLPVSLGDQASISCRSSQSLLHSNGNTFLHWYLQKPGQSPKLLIYKVSNRFSGVPDRFSGSGSGTDFTLKVSRVEAEDLGVYFCSQTTHLPWTFGGGTKLEIKR
notes: Murine parental antibody from hybridoma; also called C9M19; clone 19
binding [3]: binds | binding [4]: binds | binding [2]: binds

B3: SRB1 (antibody, V domains shown)
VH: EVQLVESGGGLVKPGGSLRLSCAASGFTFSKFWMNWVRQAPGKGLEWVGEIRLKSNNYATHYAESVKGRFTISRDDSKNTLYLQMNSLKTEDTAVYYCTSDGWFAYWGQGTLVTVSS
VL: DVQMTQSPSSLSASVGDRVTITCRSSQSLVHSNGNTYLNWYQQKPGKAPKLLIYKVSNRFSGVPSRFSGSGSGTDFTLTISSLQPEDFATYYCSQSTHFPRTFGGGTKVEIKR
notes: Detected with anti-human Fc, so it has a human Fc; also called humanised version of the antibody 92R; positive control
binding (N-terminal 6 (…) (human)): binds | binding [5]: binds

B4: huC9Mab16-VL2 pHrodo (antibody, V domains shown)
VH: EVQLVESGGGLVKPGGSLRLSCAASGFTFSDYWMNWVRQAPGKGLEWVGEIRSKSKNYATHYEESVRGRFTISRDDSKNTLYLQMNSLKTEDTAVYYCMFFYSPYWGQGTLVTVSS
VL: DVVMTQSPSSLSASVGDRVTITCRSSQSLVHSNGITFLHWYQQKPGKAPKLLIYKVSNRFSGVPSRFSGSGSGTDFTLTISSLQPEDFATYYCSQTTHVPWTFGGGTKVEIK
modifications: pHrodo fluorophore label (sites not given)
notes: also called pHrodo-labeled huC9Mab16-VL2
binding [6]: binds | binding [7]: binds

B5: huC9Mab19-VL2 pHrodo (antibody, V domains shown)
VH: EVQLVESGGGLVKPGGSLRLSCAASGFTFSNYWMDWVRQAPGKGLEWVGEIRSKSNNYATHYAESMKGRFTISRDDSKNTLYLQMNSLKTEDTAVYYCAFYYSPYWGQGTLVTVSS
VL: DVVMTQSPSSLSASVGDRVTITCRSSQSLLHSNGNTFLHWYQQKPGKAPKLLIYKVSNRFSGVPSRFSGSGSGTDFTLTISSLQPEDFATYYCSQTTHLPWTFGGGTKVEIK
modifications: pHrodo fluorophore label (sites not given)
notes: also called pHrodo-labeled huC9Mab19-VL2
binding [6]: binds | binding [7]: binds

Reference: patent EP4578874A1 (SunRock Biopharma S.L., dated 2025)
